1 substance from patent US20210213135A1 (Purdue Research Foundation, priority 2018, published 2021) can be followed below.

In the assay the test system is Swiss Webster fracture-bearing mice (fracture callus). The assay is described as follows: micro CT of the fracture callus in the femur fracture model. The assay is classed as in vivo. Conditions: 4 weeks; 1 and 10 nmol/day.

With “TP508 D10: SEQ ID NO: 12, Thrombin fragment TP508 with 10 aspartate acids: DDDDDDDDDDAGYKPDEGKRGDACEGDSGGPFV (TP 508_D10)”, the BV/TV entry is given as “dose dependent manner”.
